From the M2OR odorant receptor database come the findings set out here.

Chains of the proteins cited; added tags and fusions are not shown. Chains listed by the source or under a name are the forms on record and can include a tag or linker.
O51L1, as listed by the source: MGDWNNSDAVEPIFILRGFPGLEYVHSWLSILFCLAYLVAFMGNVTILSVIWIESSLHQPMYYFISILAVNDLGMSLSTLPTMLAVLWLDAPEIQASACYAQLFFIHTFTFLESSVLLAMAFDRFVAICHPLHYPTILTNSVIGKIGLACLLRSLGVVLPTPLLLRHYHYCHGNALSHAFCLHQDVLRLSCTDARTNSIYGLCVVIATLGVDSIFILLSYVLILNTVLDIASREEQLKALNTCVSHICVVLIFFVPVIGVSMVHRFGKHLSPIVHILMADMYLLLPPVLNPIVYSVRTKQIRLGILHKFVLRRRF
O51V1, as listed by the source: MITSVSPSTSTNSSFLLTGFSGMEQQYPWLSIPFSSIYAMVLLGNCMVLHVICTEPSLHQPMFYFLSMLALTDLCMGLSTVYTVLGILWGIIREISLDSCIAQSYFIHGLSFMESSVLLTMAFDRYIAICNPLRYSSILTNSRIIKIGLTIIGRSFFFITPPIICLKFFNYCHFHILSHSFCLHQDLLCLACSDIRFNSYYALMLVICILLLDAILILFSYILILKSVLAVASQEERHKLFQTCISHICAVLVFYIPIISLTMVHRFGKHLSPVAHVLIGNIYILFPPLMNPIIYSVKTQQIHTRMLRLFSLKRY
O52E8, as listed by the source: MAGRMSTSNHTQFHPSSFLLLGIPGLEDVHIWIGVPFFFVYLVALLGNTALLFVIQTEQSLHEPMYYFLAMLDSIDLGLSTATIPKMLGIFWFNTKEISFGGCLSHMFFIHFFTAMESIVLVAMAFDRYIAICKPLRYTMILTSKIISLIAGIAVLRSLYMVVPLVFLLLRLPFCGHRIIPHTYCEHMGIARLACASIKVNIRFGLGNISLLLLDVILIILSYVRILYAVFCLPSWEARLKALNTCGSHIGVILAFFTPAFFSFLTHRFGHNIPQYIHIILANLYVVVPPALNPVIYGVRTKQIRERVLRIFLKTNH
O52E4, as listed by the source: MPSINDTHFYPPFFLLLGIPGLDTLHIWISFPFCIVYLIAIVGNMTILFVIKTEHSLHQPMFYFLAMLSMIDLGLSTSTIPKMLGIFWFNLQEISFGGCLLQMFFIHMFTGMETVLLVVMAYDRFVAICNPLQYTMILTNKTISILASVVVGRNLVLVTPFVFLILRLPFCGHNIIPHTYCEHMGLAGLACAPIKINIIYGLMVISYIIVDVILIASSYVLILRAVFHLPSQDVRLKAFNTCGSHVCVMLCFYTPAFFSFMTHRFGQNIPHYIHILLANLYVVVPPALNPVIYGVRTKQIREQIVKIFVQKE
O52E5, as listed by the source: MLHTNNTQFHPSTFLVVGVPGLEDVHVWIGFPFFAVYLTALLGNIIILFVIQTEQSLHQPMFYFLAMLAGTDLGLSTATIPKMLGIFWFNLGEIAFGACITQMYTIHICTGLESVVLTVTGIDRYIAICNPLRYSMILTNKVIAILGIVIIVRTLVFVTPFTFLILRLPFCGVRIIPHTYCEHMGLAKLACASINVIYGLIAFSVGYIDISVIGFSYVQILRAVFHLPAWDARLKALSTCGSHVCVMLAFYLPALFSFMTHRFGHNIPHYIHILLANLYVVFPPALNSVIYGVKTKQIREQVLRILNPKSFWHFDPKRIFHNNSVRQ
O52E1, as listed by the source: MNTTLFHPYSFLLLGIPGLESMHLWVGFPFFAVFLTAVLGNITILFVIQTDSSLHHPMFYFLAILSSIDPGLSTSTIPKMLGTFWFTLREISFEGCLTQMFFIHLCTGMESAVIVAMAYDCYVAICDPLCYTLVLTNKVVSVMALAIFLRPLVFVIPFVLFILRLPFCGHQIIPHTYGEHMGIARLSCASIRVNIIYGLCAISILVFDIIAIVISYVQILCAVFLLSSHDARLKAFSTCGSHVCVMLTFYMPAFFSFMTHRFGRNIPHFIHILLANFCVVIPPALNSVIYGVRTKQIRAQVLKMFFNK
O52E2, as listed by the source: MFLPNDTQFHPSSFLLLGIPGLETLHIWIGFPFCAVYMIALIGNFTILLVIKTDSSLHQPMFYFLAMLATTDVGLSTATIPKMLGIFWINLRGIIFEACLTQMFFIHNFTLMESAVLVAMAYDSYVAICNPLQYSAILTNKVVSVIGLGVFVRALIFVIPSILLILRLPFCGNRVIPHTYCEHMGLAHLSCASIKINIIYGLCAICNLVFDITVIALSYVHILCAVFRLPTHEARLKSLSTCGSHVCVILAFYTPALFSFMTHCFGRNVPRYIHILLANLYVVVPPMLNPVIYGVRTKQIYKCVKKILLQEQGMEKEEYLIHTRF

The structures appear in SMILES notation. Numbering of substitutions follows the chain as printed. The list shows a part of the results, in another mix than the full data. The calls were merged from several studies; some rest on single wells. This is one part of the list.

Common to all, as to details: stereoisomer not certain
The test system of experiment [1] is T1, O51G1.
T1 sequence (whole entry): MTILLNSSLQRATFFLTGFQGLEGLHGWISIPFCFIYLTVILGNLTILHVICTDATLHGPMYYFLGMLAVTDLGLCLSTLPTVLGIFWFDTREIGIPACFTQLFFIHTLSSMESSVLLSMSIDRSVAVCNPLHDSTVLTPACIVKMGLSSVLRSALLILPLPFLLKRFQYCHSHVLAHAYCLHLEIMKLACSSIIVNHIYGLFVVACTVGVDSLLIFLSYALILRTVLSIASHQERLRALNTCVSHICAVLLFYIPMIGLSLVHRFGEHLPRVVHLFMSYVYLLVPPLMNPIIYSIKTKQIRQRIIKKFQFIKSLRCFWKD
In outline: (§1)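 Each entry records the cell line, G-protein, co-transfected protein and tags used. Methods varied with the source, often transient luciferase assays in mammalian cell lines. A receptor–molecule pair is called responsive (active) if the original authors judged its signal statistically different from baseline and non-responsive (inactive) otherwise.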

Experiment [2] deals with T2, O51G2.
T2 sequence (whole entry): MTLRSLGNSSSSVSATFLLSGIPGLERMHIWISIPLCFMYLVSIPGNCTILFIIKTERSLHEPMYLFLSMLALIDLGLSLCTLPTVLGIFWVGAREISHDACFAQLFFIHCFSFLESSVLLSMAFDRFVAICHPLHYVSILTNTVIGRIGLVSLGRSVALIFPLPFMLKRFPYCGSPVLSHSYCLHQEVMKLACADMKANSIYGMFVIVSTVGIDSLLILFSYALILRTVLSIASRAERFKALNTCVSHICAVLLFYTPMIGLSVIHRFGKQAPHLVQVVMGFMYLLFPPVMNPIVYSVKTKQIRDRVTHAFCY
In outline: as §1

The subject of experiment [3] is T3, O51J1.
T3 sequence (whole entry): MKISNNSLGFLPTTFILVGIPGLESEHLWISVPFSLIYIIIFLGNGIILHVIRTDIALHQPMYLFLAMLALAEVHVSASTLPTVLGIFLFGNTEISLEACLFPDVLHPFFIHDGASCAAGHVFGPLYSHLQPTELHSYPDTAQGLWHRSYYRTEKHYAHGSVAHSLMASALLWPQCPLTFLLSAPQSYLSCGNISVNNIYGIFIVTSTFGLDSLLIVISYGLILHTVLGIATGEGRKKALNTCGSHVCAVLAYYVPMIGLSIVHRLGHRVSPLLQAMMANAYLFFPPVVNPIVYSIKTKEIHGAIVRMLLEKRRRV
In short, it runs like this:
as §1

The subject of experiment [4] is T4, O51L1.
T4 sequence (whole entry): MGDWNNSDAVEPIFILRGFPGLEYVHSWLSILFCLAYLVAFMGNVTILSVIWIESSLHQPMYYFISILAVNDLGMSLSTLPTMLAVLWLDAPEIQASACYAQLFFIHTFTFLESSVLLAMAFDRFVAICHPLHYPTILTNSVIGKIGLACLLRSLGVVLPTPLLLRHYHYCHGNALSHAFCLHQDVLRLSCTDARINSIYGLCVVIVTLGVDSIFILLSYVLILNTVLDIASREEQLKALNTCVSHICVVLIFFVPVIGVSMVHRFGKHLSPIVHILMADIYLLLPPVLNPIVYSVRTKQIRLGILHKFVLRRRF
In outline:
as §1

The test system of experiment [5] is T5, O51L1.
T5 sequence (whole entry): T4 sequence (whole entry) with I196T, V207A, I281M
In outline:
as §1
This is another data set of the same source.

In experiment [6] the test system is T6, O51M1.
T6 sequence (whole entry): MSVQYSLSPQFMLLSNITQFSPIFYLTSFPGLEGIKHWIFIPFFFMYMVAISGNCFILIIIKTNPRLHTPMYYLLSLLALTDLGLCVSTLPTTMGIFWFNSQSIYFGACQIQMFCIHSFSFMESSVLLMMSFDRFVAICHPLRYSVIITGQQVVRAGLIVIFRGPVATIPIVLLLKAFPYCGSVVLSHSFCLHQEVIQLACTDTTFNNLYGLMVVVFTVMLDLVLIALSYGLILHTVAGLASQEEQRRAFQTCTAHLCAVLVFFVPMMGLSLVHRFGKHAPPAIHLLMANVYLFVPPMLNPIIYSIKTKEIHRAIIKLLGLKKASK
In short, it runs like this:
as §1

Experiment [7] deals with T7, O51Q1.
T7 sequence (whole entry): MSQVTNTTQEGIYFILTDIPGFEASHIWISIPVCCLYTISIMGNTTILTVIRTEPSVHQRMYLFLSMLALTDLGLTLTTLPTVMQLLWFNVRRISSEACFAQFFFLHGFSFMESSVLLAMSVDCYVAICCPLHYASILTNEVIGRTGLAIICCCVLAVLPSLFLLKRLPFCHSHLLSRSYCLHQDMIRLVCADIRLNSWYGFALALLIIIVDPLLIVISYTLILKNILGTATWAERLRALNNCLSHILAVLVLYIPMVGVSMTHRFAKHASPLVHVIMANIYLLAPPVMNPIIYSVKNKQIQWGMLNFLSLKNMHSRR
In outline: as §1

The subject of experiment [8] is T8, O51T1.
T8 sequence (whole entry): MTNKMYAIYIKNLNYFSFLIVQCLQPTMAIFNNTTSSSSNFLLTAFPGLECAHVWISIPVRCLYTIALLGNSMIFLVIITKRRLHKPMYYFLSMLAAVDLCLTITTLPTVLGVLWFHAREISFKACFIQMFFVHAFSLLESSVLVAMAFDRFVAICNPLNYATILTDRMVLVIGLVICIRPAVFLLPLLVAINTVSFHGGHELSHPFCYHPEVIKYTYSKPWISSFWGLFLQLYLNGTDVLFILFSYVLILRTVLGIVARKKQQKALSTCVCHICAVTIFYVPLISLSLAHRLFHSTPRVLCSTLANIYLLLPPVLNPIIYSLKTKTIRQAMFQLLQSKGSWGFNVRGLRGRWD
In outline:
as §1

The subject of experiment [9] is T9, O51V1.
T9 sequence (whole entry): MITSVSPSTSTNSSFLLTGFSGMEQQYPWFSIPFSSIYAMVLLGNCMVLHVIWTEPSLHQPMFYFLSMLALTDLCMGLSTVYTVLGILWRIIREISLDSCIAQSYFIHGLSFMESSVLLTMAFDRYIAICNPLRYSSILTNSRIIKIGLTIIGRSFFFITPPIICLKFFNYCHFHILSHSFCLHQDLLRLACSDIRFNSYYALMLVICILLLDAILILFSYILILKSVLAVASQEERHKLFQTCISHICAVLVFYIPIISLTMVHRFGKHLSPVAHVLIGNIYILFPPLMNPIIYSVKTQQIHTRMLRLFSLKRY
In outline:
as §1

Experiment [10] deals with T10, O51V1.
T10 sequence (whole entry): T9 sequence (whole entry) with F30L, W53C, R90G, R189C
In outline:
as §1
The source holds these as a separate data set.

The test system of experiment [11] is T11, O52A1.
T11 sequence (whole entry): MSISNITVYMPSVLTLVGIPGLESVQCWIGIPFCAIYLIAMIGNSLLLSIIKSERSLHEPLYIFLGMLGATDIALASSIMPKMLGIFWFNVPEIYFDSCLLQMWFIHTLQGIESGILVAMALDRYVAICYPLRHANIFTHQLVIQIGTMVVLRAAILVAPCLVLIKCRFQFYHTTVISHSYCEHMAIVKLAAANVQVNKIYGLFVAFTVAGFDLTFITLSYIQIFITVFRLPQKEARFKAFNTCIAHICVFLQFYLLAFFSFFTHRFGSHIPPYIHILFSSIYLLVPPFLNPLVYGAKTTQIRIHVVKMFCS
In short, it runs like this:
as §1

Experiment [12] relates to T12, O52B2.
T12 sequence (whole entry): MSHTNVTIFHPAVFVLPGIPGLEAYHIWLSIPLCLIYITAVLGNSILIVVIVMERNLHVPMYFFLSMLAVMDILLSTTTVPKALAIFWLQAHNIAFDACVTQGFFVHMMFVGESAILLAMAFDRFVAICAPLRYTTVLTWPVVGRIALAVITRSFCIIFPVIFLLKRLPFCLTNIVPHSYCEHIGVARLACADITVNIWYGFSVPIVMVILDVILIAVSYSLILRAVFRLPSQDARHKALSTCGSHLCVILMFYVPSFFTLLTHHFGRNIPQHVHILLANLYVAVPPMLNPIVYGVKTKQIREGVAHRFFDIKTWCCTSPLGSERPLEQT
In outline: as §1

Experiment [13] deals with T13, O52B6.
T13 sequence (whole entry): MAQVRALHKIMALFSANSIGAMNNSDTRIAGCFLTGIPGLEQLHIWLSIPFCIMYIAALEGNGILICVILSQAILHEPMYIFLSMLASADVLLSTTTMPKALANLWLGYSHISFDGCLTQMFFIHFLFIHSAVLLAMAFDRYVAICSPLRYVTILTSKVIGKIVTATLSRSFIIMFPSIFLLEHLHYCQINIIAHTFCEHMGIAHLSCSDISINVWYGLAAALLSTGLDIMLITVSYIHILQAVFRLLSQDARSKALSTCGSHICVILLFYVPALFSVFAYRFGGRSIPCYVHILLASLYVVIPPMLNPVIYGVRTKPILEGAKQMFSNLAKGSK
In outline: as §1

The subject of experiment [14] is O52E1. In outline:
as §1

The subject of experiment [15] is O52E2. In outline: as §1
The subject of experiment [16] is O52E4. In short, it runs like this: as §1
Experiment [17] concerns O52E5. In outline: as §1
Experiment [18] deals with O52E8. In short, it runs like this: as §1
Experiment [19] concerns T14, O52I2.
T14 sequence (whole entry): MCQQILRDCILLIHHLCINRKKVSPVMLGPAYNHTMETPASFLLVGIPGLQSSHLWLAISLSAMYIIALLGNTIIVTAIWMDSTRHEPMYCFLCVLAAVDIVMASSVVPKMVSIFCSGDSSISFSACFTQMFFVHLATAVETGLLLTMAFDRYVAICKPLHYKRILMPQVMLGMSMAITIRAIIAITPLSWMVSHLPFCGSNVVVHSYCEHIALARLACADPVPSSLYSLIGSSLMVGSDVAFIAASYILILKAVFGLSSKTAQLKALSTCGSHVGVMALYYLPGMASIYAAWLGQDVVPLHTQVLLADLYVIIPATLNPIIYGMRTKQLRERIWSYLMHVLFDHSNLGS
In outline:
as §1

`CC(C)CC(=O)O`: the “odorant receptor agonist call” value in experiment [1], in experiment [2], in [3], in experiment [4], in experiment [5] and in experiment [7] was “inactive” in each case. Besides, the “odorant receptor agonist call” value in experiment [8], in experiment [9], in experiment [10], in experiment [11], in experiment [12] and in [13] was “inactive” each time. For the same compound, the “odorant receptor agonist call” value in [14], in experiment [15], in experiment [16], in experiment [17], in experiment [18] and in [19] was “inactive” throughout. Also, the “odorant receptor agonist call” value in experiment [6] was “active”.

Take `CC1=NC(C)SC1C` (centres undefined): the “odorant receptor agonist call” value in [1], in experiment [2], in [4], in experiment [5], in experiment [7] and in experiment [8] was “inactive” throughout. Moreover, the “odorant receptor agonist call” value in experiment [11], in experiment [12], in experiment [13], in experiment [14], in experiment [15] and in [16] was “inactive” in each case. Moreover, the “odorant receptor agonist call” value in experiment [18] and in [19] was “inactive” in each case.

As for `CCCCCC(C)=O`, the “odorant receptor agonist call” value in [1], in experiment [2], in experiment [4], in experiment [5], in [7] and in experiment [8] was “inactive” throughout. Further, the “odorant receptor agonist call” value in experiment [11], in [12], in experiment [13], in experiment [14], in experiment [15] and in experiment [18] was “inactive” each time. In experiment [19], the “odorant receptor agonist call” value was “active”.

`C=C(C)C1CCC2=CC(=O)CC(C)C2(C)C1` (centres undefined): the “odorant receptor agonist call” value in experiment [3], in experiment [6], in [9], in [10], in experiment [16] and in [17] was “active” throughout.

Regarding `COC(=O)c1ccccc1O`, the “odorant receptor agonist call” value in experiment [1], in experiment [2], in experiment [3], in [4], in experiment [5] and in [6] was “inactive” throughout. Also, the “odorant receptor agonist call” value in [7], in [8], in [9], in [10], in experiment [11] and in experiment [12] was “inactive” each time. Besides, the “odorant receptor agonist call” value in [13], in [14], in experiment [15], in experiment [16], in [17] and in experiment [18] was “inactive” in each case. Moreover, in experiment [19], the “odorant receptor agonist call” value is “inactive”.

Consider `COC(=O)c1ccccc1`, for which the “odorant receptor agonist call” value in [1], in [2], in experiment [4], in [5], in experiment [7] and in [8] was “inactive” each time. Besides, the “odorant receptor agonist call” value in [11], in [12], in [13], in [14], in [15] and in experiment [18] was “inactive” throughout. Further, the “odorant receptor agonist call” value in experiment [19] was “inactive”.
